# Experimental data: PubChem BioAssay AID1508597 (Cure First, 2020)
# Aim: 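Genes whose silencing sensitises or protects ovarian cancer cells against rucaparib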 (primary screen)
# Cell system: human ovarian carcinoma lines grown from tumours: OCI-P5x (papillary serous) and OCI-C5x (clear cell)
# Reagents: siRNA pool against human genes, 1.25 pmol siRNA per well
# Time to read-out: 72 h or 96 h, depending on the cell culture
# Challenge: rucaparib 20 µM (about IC30) or vehicle, present until read-out
# Rucaparib or vehicle: Rucaparib
# Cell line: OCI-P5x (serous)
# Read-out: 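Luminescent ATP-based viability assay read 72 or 96 h after transfection, depending on culture, given as normalised percent viability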
# Scale: viability, normalised: higher = more viable cells remaining
# Rule for the call: 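Active when normalised viability falls below 80 percent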
# Calls: active = viability under 80%; inactive = viability 80% or more
# Shown is an unselected part of the about 2,100 reagents, under one of the conditions tested. 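Calls flag viability under 80% in either arm, not effects specific to rucaparib; the reference for percent is not stated.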 Entries without a mark were called inactive. A reagent listed more than once was tested more than once; the source does not tell the runs apart. Reagent sequences are not shown. Not given: the 100% reference.
Gene,technical replicate,"viability, normalised (%)"
EYA3,1,48.4 (active)
EYA3,2,51.5 (active)
EYA3,3,51.4 (active)
GLI1,1,50.6 (active)
GLI1,2,62.5 (active)
GLI1,3,66 (active)
POLR2K,1,114
POLR2K,2,103
POLR2K,3,89.2
PIM1,1,115
PIM1,2,130
PIM1,3,113
CDK5,1,83.5
CDK5,2,77.7 (active)
CDK5,3,76.7 (active)
PLK4,1,69.9 (active)
PLK4,2,97.5
PLK4,3,47.4 (active)
RUVBL1,1,56.6 (active)
RUVBL1,2,49.9 (active)
RUVBL1,3,50.8 (active)
TFRC,1,75.8 (active)
TFRC,2,69.2 (active)
TFRC,3,83
DDX42,1,57.8 (active)
DDX42,2,68.5 (active)
DDX42,3,63.9 (active)
GRK1,1,73.3 (active)
GRK1,1,77.7 (active)
GRK1,1,90.7
GRK1,2,77.7 (active)
GRK1,2,75.4 (active)
GRK1,2,80.6
GRK1,3,80.8
GRK1,3,86.1
GRK1,3,82.6
PDE2A,1,51.1 (active)
PDE2A,2,56.4 (active)
PDE2A,3,52.2 (active)
PKN3,1,48.3 (active)
PKN3,2,60.4 (active)
PKN3,3,62.7 (active)
PRKG2,1,74.1 (active)
PRKG2,2,103
PRKG2,3,91.5
SNAI1,1,64 (active)
SNAI1,2,57.6 (active)
SNAI1,3,78.3 (active)
TERF2,1,84.6
TERF2,1,58.5 (active)
TERF2,2,77.9 (active)
TERF2,2,76.5 (active)
TERF2,3,71.6 (active)
TERF2,3,70.6 (active)
PNCK,1,98.9
PNCK,2,97
PNCK,3,79.9 (active)

Part of the list above in another layout:
{"Gene": "PDE2A", "technical replicate": "2", "viability, normalised (%)": "56.4 (active)"}
{"Gene": "PDE2A", "technical replicate": "3", "viability, normalised (%)": "52.2 (active)"}
{"Gene": "PKN3", "technical replicate": "1", "viability, normalised (%)": "48.3 (active)"}
{"Gene": "PKN3", "technical replicate": "2", "viability, normalised (%)": "60.4 (active)"}
